Measured values taken from PubChem BioAssay AID504834 (National Center for Advancing Translational Sciences (NCATS), 2011).
The campaign covered roughly 320,000 compounds. About 22,000 (6.9%) were called active. The shares of active, inactive and inconclusive entries below differ from those in the screen. Calls come from the whole dose curve; as a rule, active = well fitted inhibition curve with a large enough effect; inconclusive = small, poorly fitted or top-dose-only effect, or another doubt; inactive = no such curve, though single readings can be large or run the other way. Potencies beside an inconclusive call are fits to weak or partial responses and may not hold up.

Experiment: Primary qHTS for delayed death inhibitors of the malarial parasite plastid, 96 hour incubation
Details: P. falciparum luciferase reporter growth; series mostly up to 28.7 µM; activity change, negative = inhibition: at the top concentration
In short: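 Two-generation exposure (96 h) targets delayed-death phenotype. Reporter parasites carrying integrated firefly luciferase, in red cells at 2% hematocrit and 0.05% parasitemia final, kept at 37 C, 5% CO2; luminescence loss indicates inhibition.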
% is set by controls: 0 for no effect and ±100 for the full control effect; potency is the fitted concentration of half-maximal effect.

| Structure (SMILES) | activity change, negative = inhibition | Potency |
| --- | --- | --- |
| Cc1ccccc1NC(=O)CSc1nc2c(c(=O)n(C)c(=O)n2C)n1C | inactive: 40.9% |  |
| CC(C)N(Cc1ccccc1)C(=O)CN1C(=O)COc2ccc(S(=O)(=O)N3CCCCCC3)cc21 | inactive: 5.65% |  |
| O=C(c1cc(-c2ccccc2)on1)N1CCN(C(=O)c2ccco2)CC1 | inactive: 1.02% |  |
| CCSc1nc2sc3c(c2c(=O)n1-c1ccccc1)CCN(C)C3 | inactive: 81.6% |  |
| CCn1c(SCc2cccc(C)c2)nnc1-c1ccccc1 |  | inconclusive: 10.4 µM [inhibitor, partial curve, poor fit] |
| COc1ccc(CCN2CC(C(=O)NCCc3cnn(C)c3)CCC2=O)cc1 (configuration not stated) | inactive: 15.5% |  |
| CCS(=O)(=O)c1ccc2c(c1)N(S(C)(=O)=O)CC(C(=O)NCc1ccccc1OC)O2 (configuration not stated) |  | inconclusive: 2.62 µM [inhibitor, full curve, poor fit] |
| COc1ccccc1C(=O)NNC(=O)c1ccc(Br)cc1 | inactive: 12.4% |  |
| N#Cc1c(SCc2c(Cl)cccc2Cl)nc(N)[nH]c1=S | inactive: 18.1% |  |
| Cc1ccccc1CN1CCC(n2nccc2NC(=O)c2cccnc2)CC1 |  | active: 9.28 µM |
| COc1ccc(S(=O)(=O)Nc2cccc(-c3ccc4nncn4n3)c2)cc1F |  | inconclusive: 4.15 µM [inhibitor, partial curve, poor fit] |
| Cn1c(=O)[nH]c(=O)c2c1nc(NC1CCCCC1)n2CC(=O)NC1CCCCC1 | inactive: -25.8% |  |
| O=C(Nc1ccccc1C(=O)Nc1ccccc1C(=O)O)c1ccccc1 |  | inconclusive: 14.7 µM [inhibitor, single point] |
| CC(OC(=O)Cc1n[nH]c(=O)c2ccccc12)C(=O)Nc1ccc(F)cc1 (configuration not stated) | inactive: -13.4% |  |
| CCOC(=O)c1ccc(NC(=O)CSc2nc(SC)ns2)cc1 |  | inconclusive: 18.5 µM [inhibitor, single point] |
| Cc1onc(-c2ccccc2)c1C(=O)N1CCc2ccccc21 | inactive: 22.6% |  |
| CC1(C)C(C=C(Cl)Cl)C1C(=O)N(Cc1ccccc1Cl)C1CCS(=O)(=O)C1 (configuration not stated) |  | inconclusive: 18.5 µM [inhibitor, single point] |
| C/C(=N\NC(=O)c1cc(C)[nH]n1)c1ccc(-c2ccccc2)cc1 |  | inconclusive: 4.15 µM [inhibitor, partial curve, poor fit] |
| O=C(NC(=S)NCC1COc2ccccc2O1)c1ccccc1 (configuration not stated) |  | inconclusive: 18.5 µM [inhibitor, single point] |
| N#Cc1c2ccccc2nc2ccccc12 | inactive: 19.9% |  |
| CCCN1CN(Cc2ccccc2)CC2=C1CC(C)(C)CC2=O |  | inconclusive: 18.5 µM [inhibitor, single point] |
| CCOC(=O)/C(C#N)=N/Nc1ccccc1C(=O)O |  | active: 10.4 µM |
| CC12CCC(=O)N1C(C(=O)N1CCN(c3cccc(Cl)c3)CC1)CS2 (configuration not stated) |  | inconclusive: 11.7 µM [inhibitor, single point] |
| COC(=O)/C(N=Nc1c(C)n(C)n(-c2ccccc2)c1=O)=C(\C)O | inactive: 0% |  |

Looked up by compound from the entries so far, 4 records:

| Structure (SMILES) | activity change, negative = inhibition | Potency |
| --- | --- | --- |
| CC1(C)C(C=C(Cl)Cl)C1C(=O)N(Cc1ccccc1Cl)C1CCS(=O)(=O)C1 (configuration not stated) |  | inconclusive: 18.5 µM [inhibitor, single point] |
| O=C(c1cc(-c2ccccc2)on1)N1CCN(C(=O)c2ccco2)CC1 | inactive: 1.02% |  |
| Cc1ccccc1NC(=O)CSc1nc2c(c(=O)n(C)c(=O)n2C)n1C | inactive: 40.9% |  |
| C/C(=N\NC(=O)c1cc(C)[nH]n1)c1ccc(-c2ccccc2)cc1 |  | inconclusive: 4.15 µM [inhibitor, partial curve, poor fit] |

Carrying on.

| Structure (SMILES) | activity change, negative = inhibition | Potency |
| --- | --- | --- |
| Cc1ccc(/C=C/C(=O)NCc2cccs2)c(C)c1 |  | inconclusive: 18.5 µM [inhibitor, single point] |
| O=C(CSc1ncnc2[nH]ncc12)Nc1cccc(Oc2ccccc2)c1 |  | inconclusive: 10.4 µM [inhibitor, single point] |
| CC(C)NS(=O)(=O)c1cc(F)ccc1CN1C(=O)c2cccnc2C1=O |  | active: 2.08 µM |
| CCOC(=O)CN1C(=O)COc2ccc(Cl)cc21 |  | inconclusive: 2.62 µM [inhibitor, full curve] |
| CCO[C@@H]1OC(C(=O)N2CCN(Cc3ccc4c(c3)OCO4)CC2)=C[C@H](C2CCCCC2)[C@H]1CCCO |  | active: 0.928 µM |
| O=C(c1cnn2c(C(F)(F)F)cc(-c3cccs3)nc12)N1CCOCC1 | inactive: 26.7% |  |
| O=C(OCc1ccccc1)c1cccnc1 |  | active: 15.1 µM |
| COC(=O)C1(O)CC(CC(C)C)=NN1C(=O)c1ccccc1 (configuration not stated) |  | active: 0.294 µM |
| CC1CCN(c2ccccc2NC(=O)c2cc([N+](=O)[O-])ccc2N2CCOCC2)CC1 |  | inconclusive: 11.7 µM [inhibitor, partial curve] |
| O=C(Cc1cccc(C(F)(F)F)c1)OCC(=O)N1CCN(S(=O)(=O)c2ccc(Cl)cc2)CC1 |  | inconclusive: 0.522 µM [inhibitor, full curve] |
| CCOc1ccc(/C=C/C(=O)C(C(N)=O)=C2SCCS2)cc1 |  | inconclusive: 9.28 µM [inhibitor, partial curve, poor fit] |
| CCSc1nnc(NC(=O)NC2CCCCC2)s1 |  | inconclusive: 2.33 µM [inhibitor, single point] |
| O=C(Nc1ccc2ccccc2c1)c1ccccc1O |  | inconclusive: 10.4 µM [inhibitor, single point] |
| Cc1cc(C)c(Cn2c3ccccc3c3cnn(CC(=O)NCCN4CCOCC4)c(=O)c32)c(C)c1 |  | inconclusive: 10.4 µM [inhibitor, single point] |
| CCS(=O)(=O)N1CCCC(C(=O)NCc2ccc(C)cc2)C1 (configuration not stated) |  | inconclusive: 8.28 µM [inhibitor, partial curve] |
| CCOc1ccccc1Nc1ccc(C(=O)O)cc1N |  | inconclusive: 18.5 µM [inhibitor, single point] |
| CCN(CC)C(=O)COc1ccc(N(C)S(=O)(=O)c2ccc(NC(C)=O)cc2)cc1 |  | inconclusive: 1.47 µM [inhibitor, partial curve, poor fit] |
| CC(=O)Nc1cccc(NC(=O)CSc2nn3c(=O)c(C)nnc3s2)c1 |  | active: 5.22 µM |
| CC(=O)c1ccc(NC(=S)NN2C(C)CCCC2C)cc1 (configuration not stated) | inactive: -3.34% |  |
| CCOC(C(=O)OCC(O)CN(CC)CC)(c1ccccc1)c1ccccc1 (configuration not stated) | inactive: -31.1% |  |
| COc1ccc(C(CC(=O)NCc2ccccc2)C(C)C)cc1 (configuration not stated) |  | inconclusive: 18.5 µM [inhibitor, single point] |
| CN(Cc1nccn1C)C(=O)c1ccc(OC2CCN(CCc3ccccc3)CC2)cc1 |  | inconclusive: 11.7 µM [inhibitor, partial curve] |
| CCCn1c(N)c(N(CCOC)C(=O)/C=C/c2ccc(C(=O)OC)cc2)c(=O)[nH]c1=O |  | inconclusive: 0.165 µM [inhibitor, full curve, poor fit] |
